Experimental data published in the supplement of paper PMC8007513.
The list shows a part of the results. Single values are uncertain, as repeats are few or missing.

Test system: Saccharomyces cerevisiae BY4743
Experiment: growth (OD600) with compound + IPBC relative to untreated control; higher = less growth inhibition
Details: compound concentration: 133 uM; IPBC concentration: 0.5 ug/ml; 20 h
Method: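 NMCCC compounds (133 uM) combined with IPBC (0.5 ug/ml) against Saccharomyces cerevisiae BY4743 in YPD, 96-well plates. Growth was read as OD600 at 20 h and expressed as % of the untreated control. Single pass.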

SMILES	growth [%]
FC(F)(F)c1cnc(SCc2noc(-c3ccsc3)n2)c(Cl)c1 + CCCCNC(=O)OCC#CI [3-iodo-2-propynyl butylcarbamate (IPBC)]	95.5
CCc1c(C)sc(NS(=O)(=O)c2ccc(NC(C)=O)cc2)c1C#N + CCCCNC(=O)OCC#CI [3-iodo-2-propynyl butylcarbamate (IPBC)]	102
CCOC(=O)c1c(NC(=O)CN2CC(C)OC(C)C2)sc(C(=O)NC)c1C (stereo not drawn) + CCCCNC(=O)OCC#CI [3-iodo-2-propynyl butylcarbamate (IPBC)]	70.6
COc1ccc(Br)c(C(=O)Nc2ccc(S(=O)(=O)C(F)F)cc2)c1 + CCCCNC(=O)OCC#CI [3-iodo-2-propynyl butylcarbamate (IPBC)]	108
O=C1O\C(=N/N1CCC#N)C2=CC=CS2 + CCCCNC(=O)OCC#CI [3-iodo-2-propynyl butylcarbamate (IPBC)]	93.6
CC\C1=N\N(CC(O)=O)C(=O)C2=CC3=C(C=CS3)[N]12 + CCCCNC(=O)OCC#CI [3-iodo-2-propynyl butylcarbamate (IPBC)]	97.1
CC(C)CCNc1cc(-c2ccccc2)nc2nncn12 + CCCCNC(=O)OCC#CI [3-iodo-2-propynyl butylcarbamate (IPBC)]	102
CCOC(=O)c1csc(NC(=O)c2cc(C)oc2C)n1 + CCCCNC(=O)OCC#CI [3-iodo-2-propynyl butylcarbamate (IPBC)]	100
CO\C1=C\N(CC(=O)NCC2=CC=C(F)C=C2)\C(=C/C1=O)CN3CCOCC3 + CCCCNC(=O)OCC#CI [3-iodo-2-propynyl butylcarbamate (IPBC)]	74.1
CN1/C=C(\C=C/C1=O)/C2=N/N(C(O2)C3=CC=C(Cl)C=C3Cl)C(C)=O (stereo not drawn) + CCCCNC(=O)OCC#CI [3-iodo-2-propynyl butylcarbamate (IPBC)]	85.7
Cc1cc(C(=O)N2CCN(C(=O)c3cccs3)CC2)[nH]n1 + CCCCNC(=O)OCC#CI [3-iodo-2-propynyl butylcarbamate (IPBC)]	116
CCCOc1ccc(CN(C(=O)c2nc(SC)ncc2Cl)C2CCS(=O)(=O)C2)cc1 (stereo not drawn) + CCCCNC(=O)OCC#CI [3-iodo-2-propynyl butylcarbamate (IPBC)]	97.7
CCOC(=O)c1c(C)[nH]c(C)c1C(=O)CN1CCc2cc(OC)c(OC)cc2C1 + CCCCNC(=O)OCC#CI [3-iodo-2-propynyl butylcarbamate (IPBC)]	103
CC(C)CCNc1c2c(nc3nncn13)CCC2 + CCCCNC(=O)OCC#CI [3-iodo-2-propynyl butylcarbamate (IPBC)]	104
Cc1sc2nc(CSC(C)C(=O)OCC(=O)N(C)C)nc(O)c2c1C (stereo not drawn) + CCCCNC(=O)OCC#CI [3-iodo-2-propynyl butylcarbamate (IPBC)]	92.7
CCOC(=O)N1CCN(C(=O)c2ccc(S(=O)(=O)N3CCCC(C)C3)cc2)CC1 (stereo not drawn) + CCCCNC(=O)OCC#CI [3-iodo-2-propynyl butylcarbamate (IPBC)]	89.2
Cc1cc(C)cc(N(CCC#N)C(=O)COC(=O)CNC(=O)c2ccc(Br)o2)c1 + CCCCNC(=O)OCC#CI [3-iodo-2-propynyl butylcarbamate (IPBC)]	103
Cc1cc(C(=O)CSc2ncccn2)c(C)n1-c1cccc(F)c1 + CCCCNC(=O)OCC#CI [3-iodo-2-propynyl butylcarbamate (IPBC)]	98.7

Rewritten as labelled records: part of the list above.
CN1/C=C(\C=C/C1=O)/C2=N/N(C(O2)C3=CC=C(Cl)C=C3Cl)C(C)=O (stereo not drawn) + CCCCNC(=O)OCC#CI [3-iodo-2-propynyl butylcarbamate (IPBC)]
  growth [%]: 85.7
Cc1sc2nc(CSC(C)C(=O)OCC(=O)N(C)C)nc(O)c2c1C (stereo not drawn) + CCCCNC(=O)OCC#CI [3-iodo-2-propynyl butylcarbamate (IPBC)]
  growth [%]: 92.7
